Reference: patent US20050004016A1 (priority 2000, published 2005)

Test: general procedure: solution-phase peptide synthesis; N-oxysuccinimide esters; N,N'-dicyclohexylcarbodiimide / N-oxybenzotriazole
Details: acetate; for final HPLC purity: whole synthesis, 220 nm

Substance | step yield (coupling step) [%] | step yield (late stage modification step) [%] | final HPLC purity (run 1) [%] | final HPLC purity (run 2) [%]
Cbz-AE(OBn)D(OBn)G-OBn | 82 | – | – | –
alanyl-glutamyl-aspartyl-glycine | – | 95 | 98.45 | 98.5

*: point of attachment. Cbz = O=C(OCc1ccccc1)*; OBn = c1ccc(CO*)cc1
